Publication PMC13189808
These are yes or no findings as the source states them, for the method shown. In cells and extracts the contact can be indirect. Here binding means that the protein was enriched with, or labelled near, the bait; the list need not be complete.

Chains of the proteins cited; added tags and fusions are not shown. Residues count along the entry.
UniProt Q13443, residues 29-819: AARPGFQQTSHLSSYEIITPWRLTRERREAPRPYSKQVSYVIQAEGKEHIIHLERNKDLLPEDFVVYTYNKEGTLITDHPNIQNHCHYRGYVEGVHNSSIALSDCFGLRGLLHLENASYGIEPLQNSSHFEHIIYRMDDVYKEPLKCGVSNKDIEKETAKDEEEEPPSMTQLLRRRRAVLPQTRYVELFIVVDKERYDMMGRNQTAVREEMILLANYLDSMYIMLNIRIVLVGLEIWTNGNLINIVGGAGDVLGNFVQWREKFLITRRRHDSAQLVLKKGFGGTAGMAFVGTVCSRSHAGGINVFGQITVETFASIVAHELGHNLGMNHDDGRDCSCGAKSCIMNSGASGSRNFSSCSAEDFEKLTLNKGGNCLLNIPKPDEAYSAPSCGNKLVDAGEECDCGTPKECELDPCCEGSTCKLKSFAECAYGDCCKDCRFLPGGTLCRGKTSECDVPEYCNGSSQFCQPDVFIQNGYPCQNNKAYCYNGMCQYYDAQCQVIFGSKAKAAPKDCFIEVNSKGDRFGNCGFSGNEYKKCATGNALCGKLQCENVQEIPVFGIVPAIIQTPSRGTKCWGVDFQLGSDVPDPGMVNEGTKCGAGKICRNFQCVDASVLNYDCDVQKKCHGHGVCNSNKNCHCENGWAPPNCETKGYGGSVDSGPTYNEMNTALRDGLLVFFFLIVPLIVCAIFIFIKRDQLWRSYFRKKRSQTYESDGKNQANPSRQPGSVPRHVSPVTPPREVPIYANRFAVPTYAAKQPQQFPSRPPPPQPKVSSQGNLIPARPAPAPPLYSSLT
UniProt P26599: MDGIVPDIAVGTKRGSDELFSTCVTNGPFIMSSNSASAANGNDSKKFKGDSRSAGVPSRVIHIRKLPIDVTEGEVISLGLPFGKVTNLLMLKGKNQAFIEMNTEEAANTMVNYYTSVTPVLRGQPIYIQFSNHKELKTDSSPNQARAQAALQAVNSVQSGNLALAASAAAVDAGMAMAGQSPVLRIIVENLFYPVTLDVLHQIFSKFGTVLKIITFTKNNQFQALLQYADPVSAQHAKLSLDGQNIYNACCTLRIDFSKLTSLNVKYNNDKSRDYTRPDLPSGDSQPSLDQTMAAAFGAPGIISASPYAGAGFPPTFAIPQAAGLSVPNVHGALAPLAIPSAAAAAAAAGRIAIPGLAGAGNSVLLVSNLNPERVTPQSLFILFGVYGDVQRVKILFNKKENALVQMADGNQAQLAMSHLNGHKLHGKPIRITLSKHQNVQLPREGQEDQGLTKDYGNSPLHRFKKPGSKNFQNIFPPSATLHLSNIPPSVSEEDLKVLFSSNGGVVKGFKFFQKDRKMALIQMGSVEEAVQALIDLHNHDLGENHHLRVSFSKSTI

Legend:
[1] = target: endogenous human ADAM9 (human) (UniProt Q13443); test: affinity purification with mass spectrometry; similar experiments with endogenous human ADAM9; proteins overlapping with the Adam13 hits
[2] = target: Adam13 (Xenopus adam13.L), full-length (Xenopus laevis); test: affinity purification with mass spectrometry + proximity labelling; immunoprecipitation of full-length Adam13 and BioID (BioID2 inserted in the Adam13 cytoplasmic domain, HEK293T cells, biotin added, streptavidin beads); hits had to be in both sample types and absent from the ΔCyto controls; at least 2 unique peptides, 95% confidence

binding [1]	binding [2]	Molecule
binds	–	PTBP1 (from UniProt P26599 1-557)
–	binds	Arid4A (protein, UniProt P29374 1-1257) MKAADEPAYLTVGTDVSAKYRGAFCEAKIKTVKRLVKVKVLLKQDNTTQLVQDDQVKGPLRVGAIVETRTSDGSFQEAIISKLTDASWYTVVFDDGDERTLRRTSLCLKGERHFAESETLDQLPLTNPEHFGTPVIAKKTNRGRRSSLPVTEDEKEEESSEEEDEDKRRLNDELLGKVVSVVSATERTEWYPALVISPSCNDDITVKKDQCLVRSFIDSKFYSIARKDIKEVDILNLPESELSTKPGLQKASIFLKTRVVPDNWKMDISEILESSSSDDEDGPAEENDEEKEKEAKKTEEEVPEEELDPEERDNFLQQLYKFMEDRGTPINKPPVLGYKDLNLFKLFRLVYHQGGCDNIDSGAVWKQIYMDLGIPILNSAASYNVKTAYRKYLYGFEEYCRSANIQFRTVHHHEPKVKEEKKDLEESMEEALKLDQEMPLTEVKSEPEENIDSNSESEREEIELKSPRGRRRIARDVNSIKKEIEEEKTEDKLKDNDTENKDVDDDYETAEKKENELLLGRKNTPKQKEKKIKKQEDSDKDSDEEEEKSQEREETESKCDSEGEEDEEDMEPCLTGTKVKVKYGRGKTQKIYEASIKSTEIDDGEVLYLVHYYGWNVRYDEWVKADRIIWPLDKGGPKKKQKKKAKNKEDSEKDEKRDEERQKSKRGRPPLKSTLSSNMPYGLSKTANSEGKSDSCSSDSETEDALEKNLINEELSLKDELEKNENLNDDKLDEENPKISAHILKENDRTQMQPLETLKLEVGENEQIVQIFGNKMEKTEEVKKEAEKSPKGKGRRSKTKDLSLEIIKISSFGQNEAGSEPHIEAHSLELSSLDNKNFSSATEDEIDQCVKEKKLKRKILGQSSPEKKIRIENGMEMTNTVSQERTSDCIGSEGMKNLNFEQHFERENEGMPSLIAESNQCIQQLTSERFDSPAEETVNIPLKEDEDAMPLIGPETLVCHEVDLDDLDEKDKTSIEDVAVESSESNSLVSIPPALPPVVQHNFSVASPLTLSQDESRSVKSESDITIEVDSIAEESQEGLCERESANGFETNVASGTCSIIVQERESREKGQKRPSDGNSGLMAKKQKRTPKRTSAAAKNEKNGTGQSSDSEDLPVLDNSSKCTPVKHLNVSKPQKLARSPARISPHIKDGEKDKHREKHPNSSPRTYKWSFQLNELDNMNSTERISFLQEKLQEIRKYYMSLKSEVATIDRRRKRLKKKDREVSHAGASMSSASSDTGMSPSSSSPPQNVLAVECR
